# Test results taken from the supplement of paper PMC8728848.
# Some of the results follow.
# B1: his-Lectin-24A (Drosophila melanogaster) (protein)
# chain: MFRLSVLVLNLLLVSHEFSAGTAKIEIQPLPALCNGYCFPTLKPVMEYVAIHQDKWNTCTEILANEARKDQIQLNIQLDALKADVSNIKASQLSKDEKLDRMEREQFAMHESLETINRYLTVKLDRTKLQLEAIKNTMDYMKAQMDGYFSAINGVQCLQPGFEKIGDRYFYIEEDVELNWLDAQAKCRRMGGHLASIKTKQEFDAIVEKLDDSKSYFLGVNENTKTGDFVSAASGKSCLYHEWGPGEPHHNNDQERCVSILRKLMHVGNCTYEKRFICQYGI
# Experiments:
# Assay in all cases: glycan array binding signal (z-score within array); higher = stronger binding
# Settings in all cases: glycan notation: IUPAC condensed, linker removed
# [1] = target: Gal(b1-4)GlcNAc(b1-2)Man(a1-3)[Gal(b1-4)GlcNAc(b1-2)Man(a1-6)]Man(b1-4)GlcNAc(b1-4)[Fuc(a1-6)]GlcNAc
# Summary of the method: (§1)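 Arrays were curated from the Consortium for Functional Glycomics database, 3228 in total, and kept only where the protein sequence was available. Binding is expressed as a within-array Z-score. This score was averaged across arrays of the same protein sequence at different concentrations or buffers and across linkers, and negative values can be read as non-binding.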
# [2] = target: Gal(b1-4)GlcNAc(b1-2)Man(a1-3)[Gal(b1-4)GlcNAc(b1-2)Man(a1-6)][Gal(b1-4)GlcNAc(b1-4)]Man(b1-4)GlcNAc(b1-4)[Fuc(a1-6)]GlcNAc
# Summary of the method: as §1
# [3] = target: Gal(b1-4)GlcNAc(b1-2)Man(a1-3)[Gal(b1-4)GlcNAc(b1-2)Man(a1-6)][GlcNAc(b1-4)]Man(b1-4)GlcNAc(b1-4)[Fuc(a1-6)]GlcNAc
# Summary of the method: as §1
# [4] = target: Gal(b1-4)GlcNAc(b1-2)Man(a1-3)[GlcNAc(b1-2)Man(a1-6)]Man(b1-4)GlcNAc(b1-4)GlcNAc
# Summary of the method: as §1
# [5] = target: Gal(b1-4)GlcNAc(b1-2)Man(a1-3)[GlcNAc(b1-4)][Gal(b1-4)GlcNAc(b1-2)Man(a1-6)]Man(b1-4)GlcNAc(b1-4)GlcNAc
# Summary of the method: as §1
# [6] = target: Gal(b1-4)GlcNAc(b1-2)Man(a1-3)[Man(a1-6)]Man(b1-4)GlcNAc(b1-4)GlcNAc
# Summary of the method: as §1
# [7] = target: Gal(b1-4)GlcNAc(b1-2)Man(a1-6)Man(b1-4)GlcNAc(b1-4)GlcNAc
# Summary of the method: as §1
# [8] = target: Gal(b1-4)GlcNAc(b1-2)Man(a1-6)[GlcNAc(b1-2)Man(a1-3)]Man(b1-4)GlcNAc(b1-4)GlcNAc
# Summary of the method: as §1
# [9] = target: Gal(b1-4)GlcNAc(b1-2)Man(a1-6)[Man(a1-3)]Man(b1-4)GlcNAc(b1-4)GlcNAc
# Summary of the method: as §1
# [10] = target: Gal(b1-4)GlcNAc(b1-2)[Gal(b1-4)GlcNAc(b1-4)]Man(a1-3)[Gal(b1-4)GlcNAc(b1-2)Man(a1-6)]Man(b1-4)GlcNAc(b1-4)GlcNAc
# Summary of the method: as §1
# [11] = target: Gal(b1-4)GlcNAc(b1-2)[Gal(b1-4)GlcNAc(b1-4)]Man(a1-3)[Gal(b1-4)GlcNAc(b1-2)[Gal(b1-4)GlcNAc(b1-6)]Man(a1-6)]Man(b1-4)GlcNAc(b1-4)GlcNAc
# Summary of the method: as §1
# [12] = target: Gal(b1-4)GlcNAc(b1-2)[Gal(b1-4)GlcNAc(b1-4)]Man(a1-3)[GlcNAc(b1-4)][Gal(b1-4)GlcNAc(b1-2)Man(a1-6)]Man(b1-4)GlcNAc(b1-4)GlcNAc
# Summary of the method: as §1
# [13] = target: Gal(b1-4)GlcNAc(b1-2)[Gal(b1-4)GlcNAc(b1-4)]Man(a1-3)[GlcNAc(b1-4)][Gal(b1-4)GlcNAc(b1-2)[Gal(b1-4)GlcNAc(b1-6)]Man(a1-6)]Man(b1-4)GlcNAc(b1-4)GlcNAc
# Summary of the method: as §1
# [14] = target: Gal(b1-4)GlcNAc(b1-2)[Gal(b1-4)GlcNAc(b1-6)]Man(a1-6)[Gal(b1-4)GlcNAc(b1-2)Man(a1-3)]Man(b1-4)GlcNAc(b1-4)GlcNAc
# Summary of the method: as §1
# [15] = target: Gal(b1-4)GlcNAc(b1-2)[Gal(b1-4)GlcNAc(b1-6)]Man(a1-6)[Gal(b1-4)GlcNAc(b1-2)Man(a1-3)]Man(b1-4)GlcNAc(b1-4)[Fuc(a1-6)]GlcNAc
# Summary of the method: as §1
# [16] = target: Gal(b1-4)GlcNAc(b1-2)[Gal(b1-4)GlcNAc(b1-6)]Man(a1-6)[GlcNAc(b1-4)][Gal(b1-4)GlcNAc(b1-2)Man(a1-3)]Man(b1-4)GlcNAc(b1-4)GlcNAc
# Summary of the method: as §1
# [17] = target: Gal(b1-4)GlcNAc(b1-2)[Gal(b1-4)GlcNAc(b1-6)]Man(a1-6)[GlcNAc(b1-4)][Gal(b1-4)GlcNAc(b1-2)[Gal(b1-4)GlcNAc(b1-4)]Man(a1-3)]Man(b1-4)GlcNAc(b1-4)[Fuc(a1-6)]GlcNAc
# Summary of the method: as §1
# [18] = target: Gal(b1-4)GlcNAc(b1-3)Gal(b1-3)GalNAc
# Summary of the method: as §1
# [19] = target: Gal(b1-4)GlcNAc(b1-3)Gal(b1-3)GlcNAc
# Summary of the method: as §1
binder,measurement,setting,value
B1,glycan array binding signal (z-score),[1],-0.044
same,glycan array binding signal (z-score),[2],-1.92
same,glycan array binding signal (z-score),[3],-0.842
same,glycan array binding signal (z-score),[4],-0.152
same,glycan array binding signal (z-score),[5],-1.51
same,glycan array binding signal (z-score),[6],0.001
same,glycan array binding signal (z-score),[7],0.504
same,glycan array binding signal (z-score),[8],-0.222
same,glycan array binding signal (z-score),[9],2.68
same,glycan array binding signal (z-score),[10],-0.462
same,glycan array binding signal (z-score),[11],-0.379
same,glycan array binding signal (z-score),[12],-1.25
same,glycan array binding signal (z-score),[13],-1.76
same,glycan array binding signal (z-score),[14],-0.553
same,glycan array binding signal (z-score),[15],0.471
same,glycan array binding signal (z-score),[16],0.134
same,glycan array binding signal (z-score),[17],-0.015
same,glycan array binding signal (z-score),[18],-0.9
same,glycan array binding signal (z-score),[19],0.165

# Quoted at random: two entries already listed.
binder,measurement,setting,value
B1,glycan array binding signal (z-score),[8],-0.222
same,glycan array binding signal (z-score),[11],-0.379
